Experimental data published in patent publication US20030170683A1.
These are yes or no findings as the source states them, for the method shown. Some results given as binding are weak or reduced against the parent protein; the word gives no strength. Where a sequence is shown, tags or fusion partners need not be part of it.

The chains behind the UniProt entries cited, without tags or fusion partners. Residues count along the entry.
UniProt Q9R1C7, residues 140-173: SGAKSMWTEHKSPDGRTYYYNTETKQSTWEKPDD

Legend:
[1] = biological target: WW domain of FBP11 (UniProt Q9R1C7); assay: radiolabeled GST-peptide probe on a western blot of WW domains (far-western)
[2] = biological target: T1, WW domain of FBP21 (UniProt Q61048); assay: as above
T1 sequence (looked up): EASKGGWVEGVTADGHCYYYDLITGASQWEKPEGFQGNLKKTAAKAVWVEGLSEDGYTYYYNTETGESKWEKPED

binding [1]: binds
binding [2]: binds
Binder: GMGIPPPPPLPGVGIPPPPPLP (peptide, not shown: a dimerising Fc or GST, radiolabeled (label and position not stated))
